The values that follow come from paper PMC6077975.

No constants are given. Whether binding was seen depends on the method and setting.

This assay has as its target T1, full-length ABCB6/HMT-1 as split-ubiquitin bait (HMT-1::Cub) (C. elegans) (UniProt G5EFD4).
T1 sequence: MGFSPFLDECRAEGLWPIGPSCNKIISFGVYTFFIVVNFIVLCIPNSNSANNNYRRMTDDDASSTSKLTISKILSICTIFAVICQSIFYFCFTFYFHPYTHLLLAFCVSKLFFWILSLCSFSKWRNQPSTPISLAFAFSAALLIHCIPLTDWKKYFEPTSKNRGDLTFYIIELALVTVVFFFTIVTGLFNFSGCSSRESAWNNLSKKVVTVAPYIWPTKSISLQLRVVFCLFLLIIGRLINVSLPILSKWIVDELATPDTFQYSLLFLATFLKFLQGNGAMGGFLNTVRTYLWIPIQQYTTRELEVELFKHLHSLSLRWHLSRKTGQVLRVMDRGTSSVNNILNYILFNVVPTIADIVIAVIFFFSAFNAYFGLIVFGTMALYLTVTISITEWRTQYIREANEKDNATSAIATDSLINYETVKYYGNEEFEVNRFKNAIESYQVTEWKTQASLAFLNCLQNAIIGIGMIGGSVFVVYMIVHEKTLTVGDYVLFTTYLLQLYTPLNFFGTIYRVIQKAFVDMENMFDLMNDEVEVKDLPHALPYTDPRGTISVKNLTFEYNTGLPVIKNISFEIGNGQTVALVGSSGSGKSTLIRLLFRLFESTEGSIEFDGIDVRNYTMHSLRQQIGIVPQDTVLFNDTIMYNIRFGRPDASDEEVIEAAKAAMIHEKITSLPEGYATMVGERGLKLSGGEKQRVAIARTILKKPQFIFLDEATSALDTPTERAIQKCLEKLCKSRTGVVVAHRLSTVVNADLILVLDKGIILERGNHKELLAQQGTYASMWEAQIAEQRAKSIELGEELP
Put plainly: two-hybrid; mating-based split-ubiquitin system (mbSUS) in yeast; CubPLV bait, NubG prey; growth on SC medium lacking adenine, histidine, leucine, tryptophan; β-galactosidase (X-gal) to confirm.

B1: ABCB6/HMT-1^Δ43 as split-ubiquitin prey (ABCB6/HMT-1^Δ43::NubG) (domain or fragment, UniProt G5EFD4 1-758)
chain: MGFSPFLDECRAEGLWPIGPSCNKIISFGVYTFFIVVNFIVLCIPNSNSANNNYRRMTDDDASSTSKLTISKILSICTIFAVICQSIFYFCFTFYFHPYTHLLLAFCVSKLFFWILSLCSFSKWRNQPSTPISLAFAFSAALLIHCIPLTDWKKYFEPTSKNRGDLTFYIIELALVTVVFFFTIVTGLFNFSGCSSRESAWNNLSKKVVTVAPYIWPTKSISLQLRVVFCLFLLIIGRLINVSLPILSKWIVDELATPDTFQYSLLFLATFLKFLQGNGAMGGFLNTVRTYLWIPIQQYTTRELEVELFKHLHSLSLRWHLSRKTGQVLRVMDRGTSSVNNILNYILFNVVPTIADIVIAVIFFFSAFNAYFGLIVFGTMALYLTVTISITEWRTQYIREANEKDNATSAIATDSLINYETVKYYGNEEFEVNRFKNAIESYQVTEWKTQASLAFLNCLQNAIIGIGMIGGSVFVVYMIVHEKTLTVGDYVLFTTYLLQLYTPLNFFGTIYRVIQKAFVDMENMFDLMNDEVEVKDLPHALPYTDPRGTISVKNLTFEYNTGLPVIKNISFEIGNGQTVALVGSSGSGKSTLIRLLFRLFESTEGSIEFDGIDVRNYTMHSLRQQIGIVPQDTVLFNDTIMYNIRFGRPDASDEEVIEAAKAAMIHEKITSLPEGYATMVGERGLKLSGGEKQRVAIARTILKKPQFIFLDEATSALDTPTERAIQKCLEKLCKSRTGVVVAHRLSTVVNADLILVLD
Regarding B1, the binding entry is recorded as “no binding”.
